Results published in patent publication US20240307439A1.
No constants are given. Whether binding was seen depends on the method and setting. Some results given as binding are weak or reduced against the parent protein; the word gives no strength.

Legend:
[1] = target: p26-binding CAR (af03); assay: flow cytometry, CAR-transduced Jurkat cells incubated with 0.5 µg Adapter, stained with anti-HIS PE
[2] = target: p26-binding CAR (af03); assay: flow cytometry, af03-CAR Jurkat cells loaded with Adapter mixtures, then CD123-Fc and biotinylated BCMA

B1: bc40-p26 Adapter (designed binder)
chain: DEHHHHHHHHHHKLENLYFQGGGGGSMGSWSEFWVRLGAIRERLDALGGSEAELAAFEKEIAAFESELQAYKGKGNPEVEKLRYTAATIRRFLQAYRHNGGGGSGGGGSGGGGSLEKCFQTENPLECQDKGEEELQKYIQESQALAKRSCGLFQKLGEYYLQNAFLVAYTKKAPQLTSSELMAITRKMAATAATCCQLSEDKLLACGEGAADIIIGHLCIRHEMTPVNPGVGQCCTSSYANRRPCFSSLVVDETYVPPAFSDDKFIFHKDLCQAQGVALQTMKQEFLINLVKQKPQITEEQLEAVIADFSGLLEKCCQGQEQEVCFAEEGQKLISKTRAALGV
[1]
  binding: binds
[2]
  binding: binds
